From article PMC8062929 come the findings set out here.

A negative result means that nothing was seen under these conditions. For some of these results: Where a protein sequence is shown, tags need not be part of it. For at least one entry, the source does not settle the construct or the ends of the probe. For some of these results: A weaker result is weaker than the reference pair of the same experiment. For some of these results: At least one verdict rests on a figure or table, not on a statement of the authors.

The target in series [1] is T1, Trx::ZmOrphan94 (Zea mays B73) (UniProt C0P6E9).
T1 sequence (looked up): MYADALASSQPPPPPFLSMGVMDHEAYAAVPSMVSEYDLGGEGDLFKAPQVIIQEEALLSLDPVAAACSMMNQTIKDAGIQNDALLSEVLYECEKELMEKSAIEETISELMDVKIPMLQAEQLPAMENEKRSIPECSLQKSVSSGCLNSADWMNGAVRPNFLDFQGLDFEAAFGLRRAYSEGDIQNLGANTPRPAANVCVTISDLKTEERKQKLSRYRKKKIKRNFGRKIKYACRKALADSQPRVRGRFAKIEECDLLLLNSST
The series can be described thus: EMSA. The conditions noted are these: EMSA: 1 ug protein, 50 fmol probe in 10 ul; 10 mM HEPES pH 7.9, 40 mM KCl, 1 mM EDTA, 1 mM DTT, 50 ng herring sperm DNA, 15 ug BSA, 10% glycerol, 1 h on ice; recombinant protein; residues 1-264; protein details: N-terminal Trx (pET32a); label: 32P.

Series [2] has as its target Trx (thioredoxin tag alone) (UniProt P0AA25). The series is described as follows: EMSA. The conditions noted are these: EMSA: 1 ug protein, 50 fmol probe in 10 ul; 10 mM HEPES pH 7.9, 40 mM KCl, 1 mM EDTA, 1 mM DTT, 50 ng herring sperm DNA, 15 ug BSA, 10% glycerol, 1 h on ice; recombinant protein; label: 32P.

On to “ACGTGACCCGTGTATAGCCATATATATACCCGCCCG / ATCACGGGCGGGTATATATATGGCTATACACGGGTC [5U-ZmPEPC1-m3.3]”, for which the binding result in series [1] was “binds more weakly”.
The same measure, in the same setting: the entry for “ACGTGCGAGGGCCGCCCGTTCCCGTGTATAGCCACG / ATCACGTGGCTATACACGGGAACGGGCGGCCCTCGC [5U-ZmPEPC1-m2.1]” is “binds more weakly”; for “ACGTGGCCAAGCCAAAAAGGAGCCTCAGCCGCAGCG / ACATCGCTGCGGCTGAGGCTCCTTTTTGGCTTGGCC [5U-ZmPEPC1-0]” it is “no binding”.
As to “ACGTGGCGGTTACCGCCGATCACATGCCCAAGGCCG / ACATCGGCCTTGGGCATGTGATCGGCGGTAACCGCC [5U-ZmPEPC1-1]”, the binding result in series [2] was “no binding”.
On to “ACGTGGCGGTTACCGCCGATTATATGCCCAAGGCCG / ACATCGGCCTTGGGCATATAATCGGCGGTAACCGCC [5U-ZmPEPC1-m1.1]”, for which the binding result in series [1] was “binds more weakly”.
As for “ACGTGTCCCGTGCACAGCTATACACACACCCGCCCG / ATCACGGGCGGGTGTGTGTATAGCTGTGCACGGGAC [5U-ZmPEPC1-m3.1]”, in series [1], the binding result is given as “binds more weakly”.
As to “ACGTGTCCCGTGTATAGCTATACACACACCCGCCCG / ATCACGGGCGGGTGTGTGTATAGCTATACACGGGAC [5U-ZmPEPC1-m3.2]”, the binding result in series [1] is on record as “binds more weakly”.
